Reference: PubChem BioAssay AID2685 (National Center for Advancing Translational Sciences (NCATS), 2010)
Hit rate of the full screen: of about 320,000 compounds, about 2,100 (0.66%) were called active. Inconclusive means that the source gave no clear call. Such entries were picked first, then a sample of the others. Calls follow the shape of the dose curve; as a rule, active = well fitted inhibition curve with a large enough effect in the signal ratio, with a control signal flat (not every such curve was filed as active); inconclusive = small, poorly fitted or top-dose-only effect, or effect the other way, or a change in a side signal; inactive = flat fitted curve, though single readings scatter; the % refers to the signal ratio. A potency beside an inconclusive call is a rough fit, not a confirmed value.

Test: qHTS Assay for Lipid Storage Modulators in Drosophila S3 Cells
Conditions: BODIPY lipid droplet fluorescence, 18-24 h, cells fed with added oleic acid; lipid storage change, negative = inhibition: at 46.1 µM (top of the series) unless noted
Procedure, shortened: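 Drosophila S3 cells loaded with oleic acid (400 uM, as added) and compounds at several concentrations; lipid droplets imaged by 488-nm laser-scanning cytometry, 500–530 nm intensity and object ratio to cell channel. Percent activity normalized to 20 uM Triacsin C.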
% is scaled to controls: 0 for no effect and ±100 for the full control effect; potency is read from the fitted curve at half-maximal effect.

Compound	lipid storage change, negative = inhibition	Potency
CCC(=O)N1CCc2cc(S(=O)(=O)CCC(=O)NCCc3ccc(S(N)(=O)=O)cc3)ccc21	inconclusive: 11.6%	–
CCOc1ccc(NC(=O)c2ccc(NC(=O)C3CCCO3)cc2)cc1 (stereo not given)	–	inconclusive: 29.1 µM [activator, single point]
COc1ccc(Br)cc1CN(C)C(C)C(=O)Nc1cc([N+](=O)[O-])ccc1OC (stereo not given)	inconclusive: 17.5%	–
N#Cc1c(NCCO)nc(NCc2ccccc2)c2c1CCN(Cc1ccccc1)C2	inconclusive: -18%	–
O=C(Nc1ccc2c(c1)OCO2)C1CCN(S(=O)(=O)c2cccs2)CC1	inconclusive: -14.5%	–
O=C(Oc1ccc2ccc(O)cc2c1)C1CCCCC1	inconclusive: -8.66%	–
COc1cccc(N2CCN(C(=O)c3ccc(Cl)c(NC4=NC5CS(=O)(=O)CC5S4)c3)CC2)c1 (stereo not given)	inconclusive: -4.41%	–
CCOC(=O)c1cnc2c(C)c(Cl)ccc2c1N1CCOCC1	inconclusive: 62.3% [activator]	–
O=C(Cn1nnc(-c2ccc(F)cc2)n1)N1CCCCC1	–	inconclusive: 20.6 µM [falling, single point]
CC(=O)c1cccc(-n2nnnc2SCC(=O)Nc2cc(C)on2)c1	inconclusive: -14.8%	–
Cc1ccc(CN2C(=O)N/C(=C\c3ccc(N4CCOCC4)cc3)C2=O)cc1	inconclusive: 46.3%	–
CSCc1cc(N(C)C)nc(SCc2ccc(Cl)cc2Cl)n1	–	inconclusive: 8.2 µM [falling, partial curve]
Cc1nnc(NC(=O)CS(=O)(=O)Cc2ccccc2)s1	inconclusive: -33.2%	–
Cc1cc(C)n(C(=O)CSc2ccc(Cl)cc2)n1	inconclusive: -17.4%	–
C=CCN=C1CC(C)(C)C(C(=O)OC)C(O)=C1C(=O)CCC (stereo not given)	inconclusive: -1.41%	–
Cc1ccc(CC(=O)N2CCN(c3ccc([N+](=O)[O-])cc3)CC2)cc1	–	active: 7.31 µM
CCCCC(=O)NC(c1ccccc1)c1ccc2cccnc2c1O (stereo not given)	inconclusive: -61.6%	–
O=C(c1ccc([N+](=O)[O-])o1)N1CCOCC1	inactive: -11.5%	–
COc1cc2c(cc1OC)CN(C(=O)c1ccc(S(=O)(=O)N3CCCC3)cc1)CC2	inconclusive: 9.89%	–
CC(CC1C(C#N)=C(N)SC(N)=C1C#N)c1ccccc1 (stereo not given)	inconclusive: 26.6% [at 9.22 µM]	–
COc1ccc2c(C=O)c[nH]c2c1	inconclusive: 21.2%	–
CSc1ccccc1NC(=S)NC1CCCCC1	inconclusive: -26.5%	–
Cc1nc(NNC(=O)c2ccc([N+](=O)[O-])cc2)cc(-c2ccccc2)n1	–	inconclusive: 6.51 µM [falling, single point]
N#C/C(=C\c1cn(CCOc2ccccc2)c2ccccc12)C(=O)NCc1ccco1	inconclusive: -16.6%	–
CC1CCCN(CCOCCOc2ccc(Cl)cc2Br)C1 (stereo not given)	inconclusive: -15.3%	–
Nn1c(SCC(=O)N2CCCc3ccccc32)nncc1=O	inconclusive: -18.2%	–
CCCOc1cccc(C(=O)Nc2ccc3c(c2)OCCO3)c1	inconclusive: -3.3%	–

Compound	lipid storage change, negative = inhibition	Potency
COc1ccc([C@H]2[C@H](C(=O)C(C)(C)C)N3N=Cc4ccccc4C3C23C(=O)OC(C)(C)OC3=O)cc1 (stereo not given in full)	–	inconclusive: 25.9 µM [rising, single point]
Cc1ccc(O)c(CNc2nc3ccccc3n2C(C)C)c1	inconclusive: -44%	–
O=C(Nc1ccccc1)Nc1ccc2ocnc2c1	inconclusive: 17.8%	–
CCOC(=O)c1ccc(N2C(=O)CC(N3CCC(O)(c4ccc(Cl)cc4)CC3)C2=O)cc1 (stereo not given)	inconclusive: -24.2%	–
COc1ccc(-c2noc(CN(C)C(=O)Nc3ccccc3)n2)cc1	inconclusive: 5.76% [at 9.22 µM]	–
COc1ccc(-n2c(=O)/c(=C\c3cccs3)s/c2=C(/C#N)C(=O)N2CCN(C)CC2)cc1	inconclusive: 14.9%	–
O=C(NC(=S)Nc1cccc(NC(=O)c2ccccc2Cl)c1)c1cccs1	–	inconclusive: 8.2 µM [activator, partial curve]
COc1ccc(CNC(=O)CSCc2cnn(-c3ccccc3)c2-n2cccc2)cc1	–	inconclusive: 29.1 µM [rising, single point]
CC(=O)Nc1ccc(S(=O)(=O)N2CCC(C(=O)NCCC(=O)NCc3ccccc3)CC2)cc1	inconclusive: 83.3%	–
Cn1c(CNC(=O)c2ccco2)nnc1SCC(=O)c1ccc(Br)cc1	–	inconclusive: 29.1 µM [activator, single point]
Cn1nnnc1P(=O)(c1ccccc1)c1ccccc1	–	inconclusive: 1.16 µM [falling, full curve]
O=C(O)c1cc(N/N=C/C=C/c2ccccc2)ccc1Cl	inconclusive: -55%	–
CC(=O)CC1(C)OC(N)=C(C#N)C1(C#N)C#N (stereo not given)	inconclusive: 29.3%	–
CCC(=O)N1CCN(c2ccccc2NC(=O)c2ccc(-c3cccc([N+](=O)[O-])c3)o2)CC1	inactive: 18.4%	–
Cc1cc(S(=O)(=O)N2CCOCC2)ccc1OCC(=O)N1CCCC1	inconclusive: -27%	–
CCCOc1ccc(C(F)(F)F)cc1NC(=O)CN1C(=O)C(=O)N(CC)C1=O	inconclusive: 16.4%	–
O=C(NNc1ncnc2sccc12)c1ccc(Cl)cc1	–	inconclusive: 0.366 µM [rising, full curve, poor fit]
Cn1c(=O)c(C(=O)NCCc2ccc(Cl)cc2)c(O)c2ccccc21	–	inconclusive: 23.1 µM [activator, single point]
CC(=O)c1ccccc1NC(=O)COC(=O)c1ccccc1NC(=O)c1ccccc1	inactive: -2.12%	–
CCOC(=O)CCc1c(C)nc(SCCN2CCCC2)c(C#N)c1C	–	inconclusive: 6.51 µM [activator, single point]
CCN(CC)CCCN(Cc1cc2cc3c(cc2[nH]c1=O)OCO3)C(=S)NCCOC	inconclusive: 85.1%	–
CN(Cc1cccc(F)c1)C(=O)c1ccccc1Sc1ccccc1C#N	–	inconclusive: 29.1 µM [falling, single point]
CCc1ccc(C(=O)CCC(=O)Nc2ccc(OC)c(S(=O)(=O)N3CCCCC3)c2)cc1	inconclusive: -27.7%	–
CN(C)N=Nc1ccc(S(=O)(=O)/N=C(\O)c2ccccc2)cc1	inconclusive: 486%	–
Cc1ccc(/C=N/NC(=O)CSc2nc3ccccc3c(=O)n2-c2ccccc2)s1	–	inconclusive: 0.461 µM [rising, partial curve]
COCCNC(=O)CN(Cc1ccc(Cl)cc1)S(C)(=O)=O	–	active: 23.1 µM
N#C/C(=C\c1ccc(-c2ccccc2C(=O)O)o1)c1nc2ccccc2[nH]1	inactive: -14.4%	–

Compound	lipid storage change, negative = inhibition	Potency
Cc1ccc(CN2CC(C(=O)Nc3cccc(C)n3)CC2=O)cc1 (stereo not given)	inconclusive: 12.6%	–
O=C(NC1CC2CCCC(C1)N2C(=O)NC1CCCCC1)c1ccccc1 (stereo not given)	inconclusive: -23.4%	–
Fc1ccc(CO/N=C/C2=C(Cl)c3ccccc3CC2)cc1	inconclusive: 13%	–
O=C(c1ccccc1Cl)N(Cc1ccc(Br)cc1)N1C(=O)CCC1=O	inconclusive: -41% [cytotoxic] [at 0.369 µM]	–
O=C(Nc1ccc(N2CCOCC2)cc1)C1CC1	inactive: 11.2%	–
CCOc1ccc(-n2c(SCC(=O)Nc3ccc4c(c3)OCO4)nc3ccccc3c2=O)cc1	inconclusive: 22.2%	–
Cc1nnc(SCC(=O)N(C)Cc2ccccc2)[nH]c1=O	inconclusive: -41.4%	–
Clc1ccc(OCCN2CCOCC2)cc1Cl	–	inconclusive: 29.1 µM [falling, single point]
CCCCCCN1C=CC=C/C1=C\C=C(C#N)C#N	inconclusive: -59.2%	–
O=C(NCc1ccccc1Cl)C1(S(=O)(=O)c2ccc(Cl)cc2)CC1	inconclusive: 22.6%	–
CCOC(=O)c1sc2nc3c(cc2c1N)COC(C(C)C)C3 (stereo not given)	inconclusive: 49.4%	–
O=C(/C=C/c1ccc(Br)o1)OCc1ccccc1	–	inconclusive: 2.31 µM [falling, partial curve]
CCN1CCN(C(=O)C(=O)c2cn(CC(=O)N3CCCCCC3)c3ccccc23)CC1	–	inconclusive: 29.1 µM [falling, single point]
O=C(c1cc(-c2ccc(Cl)s2)nc2ccccc12)N1CCOCC1	inconclusive: 29.2%	–
CCCc1cc(C(=O)Nc2ccc(OC)cc2[N+](=O)[O-])cs1	–	inconclusive: 29.1 µM [falling, single point]
COc1cccc(N=Nc2c(N)[nH][nH]c2=O)c1	inconclusive: 31.1%	–
Cc1c(OC(C)C(=O)NCc2ccccn2)ccc2c3c(c(=O)oc12)CCC3 (stereo not given)	–	active: 11.6 µM
CCCn1c(C2CCCN2c2nc(-c3cccc(Br)c3)cs2)nc2ccccc21 (stereo not given)	–	inconclusive: 32.6 µM [activator, single point]
CCOC(=O)N1CCN(C(=O)c2ccccc2NC(=O)COc2ccccc2C)CC1	inconclusive: -14.9%	–
O=C(/C=C/c1ccccc1)NCCN1CCOCC1	inconclusive: 39.9%	–
O=C(O)CC12CC3CC(C1)CC(n1ncc(NCc4ccccc4)c(Cl)c1=O)(C3)C2	inconclusive: -15.2%	–
CCN1CCN(C(=O)c2ccc3nc(-c4ccccc4)c(-c4ccccc4)nc3c2)CC1	inconclusive: -47.4%	–
Cc1cc(NC(=O)CCCN2C(=O)/C(=C/c3ccccc3Cl)SC2=S)no1	inconclusive: 81.9%	–
CCN(C(=O)/C=C/c1ccc2c(c1)OCO2)c1ccccc1	inconclusive: -4.16%	–
CCCc1nc2oc3c(OC)ncnc3c2c2c1COC(C)(C)C2	inconclusive: 241%	–
N#Cc1ccc(CSc2nnc(-c3ccncc3)n2CCc2ccccc2)cc1	inconclusive: 47.4%	–

Arranged by molecular weight (ascending): part of the list above.
Compound	lipid storage change, negative = inhibition	Potency
CCCCCCN1C=CC=C/C1=C\C=C(C#N)C#N	inconclusive: -59.2%	–
O=C(c1cc(-c2ccc(Cl)s2)nc2ccccc12)N1CCOCC1	inconclusive: 29.2%	–
O=C(NCc1ccccc1Cl)C1(S(=O)(=O)c2ccc(Cl)cc2)CC1	inconclusive: 22.6%	–

Record cards (already shown).
`O=C(c1cc(-c2ccc(Cl)s2)nc2ccccc12)N1CCOCC1` in the list: lipid storage change, negative = inhibition: inconclusive: 29.2%
`CCCOc1cccc(C(=O)Nc2ccc3c(c2)OCCO3)c1` in the list: lipid storage change, negative = inhibition: inconclusive: -3.3%
